Test results as given in the supplement of paper PMC10849652.
The list shows a part of the results.

Chains of the proteins cited; added tags and fusions are not shown. Lines headed by an entry give the natural chain unless they say otherwise; changes in a name come on top.
UniProt O60637: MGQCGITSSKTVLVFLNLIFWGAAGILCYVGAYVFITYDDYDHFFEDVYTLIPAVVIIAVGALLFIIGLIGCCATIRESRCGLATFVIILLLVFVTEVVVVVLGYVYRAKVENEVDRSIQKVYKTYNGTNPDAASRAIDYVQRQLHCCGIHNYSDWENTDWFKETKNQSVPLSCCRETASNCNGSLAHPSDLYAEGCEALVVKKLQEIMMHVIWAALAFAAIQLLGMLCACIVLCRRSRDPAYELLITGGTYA
UniProt P60604: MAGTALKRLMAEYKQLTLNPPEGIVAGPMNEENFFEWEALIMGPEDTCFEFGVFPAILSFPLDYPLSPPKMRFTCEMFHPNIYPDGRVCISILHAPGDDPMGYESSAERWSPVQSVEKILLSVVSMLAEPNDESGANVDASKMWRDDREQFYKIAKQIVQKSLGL
UniProt Q14157: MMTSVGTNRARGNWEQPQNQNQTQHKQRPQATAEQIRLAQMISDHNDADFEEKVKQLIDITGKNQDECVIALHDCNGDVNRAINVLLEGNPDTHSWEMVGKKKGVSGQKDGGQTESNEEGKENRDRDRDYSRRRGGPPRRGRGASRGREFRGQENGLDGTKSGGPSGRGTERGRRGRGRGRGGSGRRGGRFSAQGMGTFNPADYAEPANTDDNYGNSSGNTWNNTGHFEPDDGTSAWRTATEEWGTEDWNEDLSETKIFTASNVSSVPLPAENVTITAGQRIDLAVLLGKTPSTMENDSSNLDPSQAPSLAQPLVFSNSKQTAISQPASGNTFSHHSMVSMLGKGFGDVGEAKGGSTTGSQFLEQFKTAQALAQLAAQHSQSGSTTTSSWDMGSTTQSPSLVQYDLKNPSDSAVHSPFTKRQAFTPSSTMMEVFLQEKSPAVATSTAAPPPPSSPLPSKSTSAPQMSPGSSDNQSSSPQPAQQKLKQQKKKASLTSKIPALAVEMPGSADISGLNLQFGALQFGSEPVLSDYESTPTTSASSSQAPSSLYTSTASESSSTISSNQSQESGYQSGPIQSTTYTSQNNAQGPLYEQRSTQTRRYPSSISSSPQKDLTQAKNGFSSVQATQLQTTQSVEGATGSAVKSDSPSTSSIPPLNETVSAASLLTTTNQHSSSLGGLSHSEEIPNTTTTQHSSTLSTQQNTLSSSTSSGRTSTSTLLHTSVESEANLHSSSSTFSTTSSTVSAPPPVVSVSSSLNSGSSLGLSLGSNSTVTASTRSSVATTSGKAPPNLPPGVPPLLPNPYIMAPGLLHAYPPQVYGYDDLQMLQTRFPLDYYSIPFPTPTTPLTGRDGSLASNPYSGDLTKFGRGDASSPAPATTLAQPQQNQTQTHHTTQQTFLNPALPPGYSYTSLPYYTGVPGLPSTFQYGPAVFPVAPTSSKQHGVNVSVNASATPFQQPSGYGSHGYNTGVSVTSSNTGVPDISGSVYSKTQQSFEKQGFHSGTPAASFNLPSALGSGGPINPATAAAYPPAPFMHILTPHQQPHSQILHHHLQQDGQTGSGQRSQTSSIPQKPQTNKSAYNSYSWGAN
UniProt Q16763: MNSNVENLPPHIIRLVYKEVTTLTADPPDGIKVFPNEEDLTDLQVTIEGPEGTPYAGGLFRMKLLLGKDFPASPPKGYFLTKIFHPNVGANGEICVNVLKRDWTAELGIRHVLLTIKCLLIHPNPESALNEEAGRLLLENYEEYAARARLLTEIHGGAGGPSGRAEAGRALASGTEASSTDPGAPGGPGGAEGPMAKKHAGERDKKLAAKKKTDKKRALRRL
UniProt Q9NX01: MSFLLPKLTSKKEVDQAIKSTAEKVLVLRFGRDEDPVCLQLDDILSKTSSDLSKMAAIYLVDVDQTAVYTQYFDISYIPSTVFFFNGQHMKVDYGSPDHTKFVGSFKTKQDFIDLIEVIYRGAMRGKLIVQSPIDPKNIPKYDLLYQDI
UniProt P51668: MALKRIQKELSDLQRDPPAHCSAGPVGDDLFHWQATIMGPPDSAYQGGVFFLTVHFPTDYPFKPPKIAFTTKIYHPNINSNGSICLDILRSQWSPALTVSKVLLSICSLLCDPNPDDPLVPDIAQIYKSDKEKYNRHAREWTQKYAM
UniProt Q8N0Z6: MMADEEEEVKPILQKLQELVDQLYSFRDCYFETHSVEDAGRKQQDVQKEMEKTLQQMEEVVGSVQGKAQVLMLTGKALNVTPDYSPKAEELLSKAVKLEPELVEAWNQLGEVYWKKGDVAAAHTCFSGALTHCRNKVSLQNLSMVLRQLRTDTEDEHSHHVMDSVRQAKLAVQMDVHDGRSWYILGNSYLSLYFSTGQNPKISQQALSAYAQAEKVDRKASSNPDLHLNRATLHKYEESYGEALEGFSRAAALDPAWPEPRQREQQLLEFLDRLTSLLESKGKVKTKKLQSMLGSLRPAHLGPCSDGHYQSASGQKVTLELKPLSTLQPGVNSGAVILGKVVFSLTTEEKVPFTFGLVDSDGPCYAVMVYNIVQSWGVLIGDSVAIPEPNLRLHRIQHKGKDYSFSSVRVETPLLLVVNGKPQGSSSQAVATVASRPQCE
UniProt Q9BVA1, whole entry, looked up: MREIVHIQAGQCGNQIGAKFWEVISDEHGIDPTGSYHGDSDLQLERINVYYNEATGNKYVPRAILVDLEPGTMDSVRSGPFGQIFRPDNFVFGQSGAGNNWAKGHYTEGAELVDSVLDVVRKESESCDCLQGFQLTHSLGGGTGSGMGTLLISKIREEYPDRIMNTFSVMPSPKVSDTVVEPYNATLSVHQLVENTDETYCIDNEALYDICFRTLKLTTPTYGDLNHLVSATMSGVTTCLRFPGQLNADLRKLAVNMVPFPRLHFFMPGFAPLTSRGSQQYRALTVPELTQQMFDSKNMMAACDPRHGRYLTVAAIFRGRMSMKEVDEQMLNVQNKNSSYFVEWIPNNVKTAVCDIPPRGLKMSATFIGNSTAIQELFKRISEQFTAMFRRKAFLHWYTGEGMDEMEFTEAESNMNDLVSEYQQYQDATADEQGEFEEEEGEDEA
UniProt Q6PKC3: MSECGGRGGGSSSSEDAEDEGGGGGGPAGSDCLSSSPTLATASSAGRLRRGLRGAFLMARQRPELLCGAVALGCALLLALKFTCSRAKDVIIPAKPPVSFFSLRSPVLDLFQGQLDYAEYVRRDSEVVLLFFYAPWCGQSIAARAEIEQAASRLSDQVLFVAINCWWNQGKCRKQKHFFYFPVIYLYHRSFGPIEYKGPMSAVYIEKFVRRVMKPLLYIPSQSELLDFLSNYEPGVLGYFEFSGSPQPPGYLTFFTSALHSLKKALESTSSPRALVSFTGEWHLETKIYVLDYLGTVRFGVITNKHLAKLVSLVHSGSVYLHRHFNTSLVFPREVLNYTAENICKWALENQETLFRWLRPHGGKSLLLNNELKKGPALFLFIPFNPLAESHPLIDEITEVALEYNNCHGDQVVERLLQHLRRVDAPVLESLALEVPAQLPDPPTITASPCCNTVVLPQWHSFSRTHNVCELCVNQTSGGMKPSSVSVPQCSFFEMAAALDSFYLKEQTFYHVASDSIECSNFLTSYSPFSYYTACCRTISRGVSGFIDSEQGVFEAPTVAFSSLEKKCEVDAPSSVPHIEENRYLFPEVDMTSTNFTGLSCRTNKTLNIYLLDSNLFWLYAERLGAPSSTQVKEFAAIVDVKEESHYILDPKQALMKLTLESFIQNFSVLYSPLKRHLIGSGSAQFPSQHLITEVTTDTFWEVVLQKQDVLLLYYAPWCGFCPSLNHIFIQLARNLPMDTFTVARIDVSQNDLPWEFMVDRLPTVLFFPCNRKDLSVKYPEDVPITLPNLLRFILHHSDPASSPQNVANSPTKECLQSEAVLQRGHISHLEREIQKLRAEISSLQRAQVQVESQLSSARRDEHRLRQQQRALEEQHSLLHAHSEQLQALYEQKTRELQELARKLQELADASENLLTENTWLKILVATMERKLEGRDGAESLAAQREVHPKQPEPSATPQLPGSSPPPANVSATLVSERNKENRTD
UniProt Q86TV6: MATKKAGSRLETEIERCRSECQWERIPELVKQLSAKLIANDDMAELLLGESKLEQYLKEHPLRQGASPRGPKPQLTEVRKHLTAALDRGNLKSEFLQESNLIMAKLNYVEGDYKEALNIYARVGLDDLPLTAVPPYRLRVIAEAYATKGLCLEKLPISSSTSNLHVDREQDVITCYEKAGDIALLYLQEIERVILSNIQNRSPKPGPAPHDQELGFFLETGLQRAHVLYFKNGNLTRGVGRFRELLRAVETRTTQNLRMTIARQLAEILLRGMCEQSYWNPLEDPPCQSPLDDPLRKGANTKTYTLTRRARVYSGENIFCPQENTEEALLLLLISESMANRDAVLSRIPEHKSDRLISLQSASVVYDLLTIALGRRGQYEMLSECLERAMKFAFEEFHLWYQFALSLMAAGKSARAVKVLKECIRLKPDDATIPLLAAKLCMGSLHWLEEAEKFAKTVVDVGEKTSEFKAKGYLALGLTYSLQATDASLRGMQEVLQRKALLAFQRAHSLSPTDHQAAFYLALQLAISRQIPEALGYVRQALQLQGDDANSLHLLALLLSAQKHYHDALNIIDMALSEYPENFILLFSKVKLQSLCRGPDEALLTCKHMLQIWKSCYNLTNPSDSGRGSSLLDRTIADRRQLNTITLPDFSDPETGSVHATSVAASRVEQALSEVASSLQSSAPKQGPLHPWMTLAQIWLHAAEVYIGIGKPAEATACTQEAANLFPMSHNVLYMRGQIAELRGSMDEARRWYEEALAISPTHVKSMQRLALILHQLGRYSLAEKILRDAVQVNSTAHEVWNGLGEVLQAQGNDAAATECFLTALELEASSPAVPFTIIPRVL
UniProt Q8NBP0: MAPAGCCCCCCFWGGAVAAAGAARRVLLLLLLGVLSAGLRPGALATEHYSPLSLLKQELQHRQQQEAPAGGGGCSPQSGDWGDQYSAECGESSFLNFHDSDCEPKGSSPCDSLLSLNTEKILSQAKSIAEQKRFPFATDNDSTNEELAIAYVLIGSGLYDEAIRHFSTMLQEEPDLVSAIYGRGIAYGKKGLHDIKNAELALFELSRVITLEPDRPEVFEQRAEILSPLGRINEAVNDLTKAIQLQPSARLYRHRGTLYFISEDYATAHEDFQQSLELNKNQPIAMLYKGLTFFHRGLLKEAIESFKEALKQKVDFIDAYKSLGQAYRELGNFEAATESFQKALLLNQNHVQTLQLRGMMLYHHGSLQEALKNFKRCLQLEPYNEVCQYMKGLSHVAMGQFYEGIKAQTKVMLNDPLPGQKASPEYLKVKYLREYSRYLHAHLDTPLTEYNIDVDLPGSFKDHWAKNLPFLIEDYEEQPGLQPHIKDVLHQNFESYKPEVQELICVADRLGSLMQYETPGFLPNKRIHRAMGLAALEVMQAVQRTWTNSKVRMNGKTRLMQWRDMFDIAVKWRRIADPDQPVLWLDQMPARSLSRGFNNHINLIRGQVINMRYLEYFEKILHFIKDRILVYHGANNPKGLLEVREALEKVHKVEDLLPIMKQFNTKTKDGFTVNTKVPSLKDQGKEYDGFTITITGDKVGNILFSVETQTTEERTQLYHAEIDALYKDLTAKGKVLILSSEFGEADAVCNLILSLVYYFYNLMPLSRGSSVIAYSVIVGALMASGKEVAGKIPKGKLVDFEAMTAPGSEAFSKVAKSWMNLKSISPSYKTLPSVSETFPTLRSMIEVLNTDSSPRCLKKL
UniProt O95857: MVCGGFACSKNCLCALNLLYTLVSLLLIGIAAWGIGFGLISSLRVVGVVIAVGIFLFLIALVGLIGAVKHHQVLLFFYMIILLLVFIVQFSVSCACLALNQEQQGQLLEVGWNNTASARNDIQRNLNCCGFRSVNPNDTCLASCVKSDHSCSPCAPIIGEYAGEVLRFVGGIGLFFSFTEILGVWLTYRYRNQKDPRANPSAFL
UniProt Q3ZCM7, whole entry, looked up: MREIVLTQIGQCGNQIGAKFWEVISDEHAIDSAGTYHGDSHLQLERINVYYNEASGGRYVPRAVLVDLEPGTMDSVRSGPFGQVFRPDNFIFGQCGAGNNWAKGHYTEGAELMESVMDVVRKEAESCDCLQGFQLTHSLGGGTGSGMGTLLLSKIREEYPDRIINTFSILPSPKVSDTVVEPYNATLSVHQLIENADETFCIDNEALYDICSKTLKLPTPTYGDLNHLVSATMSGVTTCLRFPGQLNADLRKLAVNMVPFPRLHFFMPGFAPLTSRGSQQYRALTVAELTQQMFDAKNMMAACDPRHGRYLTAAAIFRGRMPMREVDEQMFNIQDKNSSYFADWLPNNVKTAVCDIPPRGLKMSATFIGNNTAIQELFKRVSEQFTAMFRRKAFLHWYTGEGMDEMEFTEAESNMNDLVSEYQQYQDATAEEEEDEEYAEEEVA
UniProt P51965: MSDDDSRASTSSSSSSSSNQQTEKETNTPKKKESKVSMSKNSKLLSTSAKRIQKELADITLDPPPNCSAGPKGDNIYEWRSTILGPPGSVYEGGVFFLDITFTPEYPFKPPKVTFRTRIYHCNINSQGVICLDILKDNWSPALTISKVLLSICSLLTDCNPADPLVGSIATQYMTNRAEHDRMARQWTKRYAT

How the values were obtained:
Assay in all cases: log2 fold change, soluble protein after heating vs DMSO (PISA); higher = thermal stabilisation; K562 cells, 10 uM, 30 min; active = over 0.2 and 3.5 SD of the protein, either way, in both replicates (recomputed)
[1] = compound: CC1=C(C=C(C=C1)NC(=O)C2=CC(=CC=C2)C(C)(C)C#N)NC3=CC4=C(C=C3)N=CN(C4=O)C
In short: (§1)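 Values are thermal stability changes relative to control samples and are taken from duplicates. They are stated as log2 fold changes. Before quantification by TMTpro 16plex LC-MS/MS with equalised channel sums, K562 cells at 2×10^6 cells/mL were treated with 10 μM compound for 30 min, heated in aliquots for 3 min across 48°C-58°C, pooled, extracted in PBS with 0.5% NP-40 at 4°C, and centrifuged at 21,000xg for 90 min to give the soluble supernatant.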

[2] = compound: CC1=C(C=C(C=C1)NC(=O)C2=CC(=CC=C2)N(C)C)NC(=O)C3=CC=C(C=C3)O
In short: as §1

[3] = compound: CC1=CC=C(C=C1)SC2=C3C=C(SC3=CN=C2)C(=O)N
In short: as §1

[4] = compound: CC1=NC(=CC=C1)C2=C(N=C(N2)C(C)(C)C)C3=CC4=NC=CN=C4C=C3
In short: as §1

vemurafenib = compound: CCCS(=O)(=O)Nc1ccc(F)c(C(=O)c2c[nH]c3ncc(-c4ccc(Cl)cc4)cc23)c1F [vemurafenib]
In short: as §1

[5] = compound: CCCS(=O)(=O)Nc1ccc(F)c(C(=O)c2c[nH]c3ncc(Cl)cc23)c1F
In short: as §1

[6] = compound: CCCc1cc(C)[nH]c(=O)c1CNC(=O)c1cc(-c2ccnc(N3CCN(C)CC3)c2)cc2c1cnn2C(C)C
In short: as §1

givinostat = compound: CCN(CC)Cc1ccc2cc(COC(=O)Nc3ccc(C(=O)NO)cc3)ccc2c1 [givinostat]
In short: as §1

barasertib = compound: CCN(CCCOc1ccc2c(Nc3cc(CC(=O)Nc4cccc(F)c4)[nH]n3)ncnc2c1)CCOP(=O)(O)O [barasertib]
In short: as §1

[7] = compound: CC[C@@H]1C(=O)N(C)c2cnc(Nc3ccc(C(=O)NC4CCN(C)CC4)cc3OC)nc2N1C1CCCC1
In short: as §1

volasertib = compound: CC[C@@H]1C(=O)N(C)c2cnc(Nc3ccc(C(=O)N[C@H]4CC[C@H](N5CCN(CC6CC6)CC5)CC4)cc3OC)nc2N1C(C)C [volasertib]
In short: as §1

[8] = compound: CC[C@H](C)N1C=C(C2=C(C=C(C=C21)C3=CN=C(C=C3)N4CCNCC4)C(=O)NCC5=C(C=C(NC5=O)C)C)C
In short: as §1

[9] = compound: CCn1c(C(=O)N(C2CC2)C2CC2)cc2c3c(ncn3C)c(Nc3cc(C)n(C)n3)nc21
In short: as §1

[10] = compound: CN(C)CC(=O)Nc1ccc2[nH]c(=O)c3ccccc3c2c1
In short: as §1

rosiglitazone = compound: CN(CCOC1=CC=C(C=C1)C[C@H]2C(=O)NC(=O)S2)C3=CC=CC=N3 (racemic) [rosiglitazone]
In short: as §1

[11] = compound: CN1C2=C(C3=C1C(=O)N(N=C3)CC4=CC(=CC=C4)N)SC(=C2)S(=O)C
In short: as §1

[12] = compound: CCn1cc(-c2ccnc3[nH]c(-c4cccc(CN(C)C)c4)cc23)c(-c2ccc(NC(=O)N(C)C)cc2)n1
In short: as §1

[13] = compound: CN1CCC(CNc2ccc3ncc(-c4cccc(OC(F)(F)F)c4)n3n2)CC1
In short: as §1

Nexturastat A = compound: CCCCN(Cc1ccc(C(=O)NO)cc1)C(=O)Nc1ccccc1 [Nexturastat A]
In short: as §1

epoxomicin = compound: CC[C@H](C)[C@@H](C(=O)N[C@@H]([C@@H](C)O)C(=O)N[C@@H](CC(C)C)C(=O)[C@]1(CO1)C)NC(=O)[C@H]([C@@H](C)CC)N(C)C(=O)C [epoxomicin]
In short: as §1

Row | Target | log2 fold change [1] | log2 fold change [2] | log2 fold change [3] | log2 fold change [4] | log2 fold change (vemurafenib) | log2 fold change [5] | log2 fold change [6] | log2 fold change (givinostat) | log2 fold change (barasertib) | log2 fold change [7] | log2 fold change (volasertib) | log2 fold change [8] | log2 fold change [9] | log2 fold change [10] | log2 fold change (rosiglitazone) | log2 fold change [11] | log2 fold change [12] | log2 fold change [13] | log2 fold change (Nexturastat A) | log2 fold change (epoxomicin)
1 | TSPAN3 (UniProt O60637) | inactive: -0.048 | inactive: -0.028 | inactive: -0.071 | inactive: 0.064 | inactive: 0.01 | inactive: -0.135 | inactive: -0.275 | inactive: 0.09 | inactive: -0.003 | inactive: 0.006 | inactive: 0.116 | inactive: -0.055 | inactive: 0.048 | inactive: -0.032 | inactive: -0.027 | inactive: 0.072 |  |  |  | 
2 | UBE2G2 (UniProt P60604) | inactive: -0.029 | inactive: -0.055 | inactive: 0.139 | inactive: -0.001 | inactive: 0.106 | inactive: 0.073 | inactive: -0.034 | inactive: 0.033 | inactive: 0.078 | inactive: -0.197 | inactive: -0.243 | inactive: -0.024 | inactive: 0.015 | inactive: 0.041 | inactive: 0.043 | inactive: -0.033 | inactive: 0.059 | inactive: -0.244 |  | 
3 | UBAP2L isoform 1 (UniProt Q14157) | inactive: -0.057 | inactive: 0.035 | inactive: -0.016 | inactive: 0.025 | inactive: -0.083 | active: 0.246 | inactive: -0.045 | active: -0.261 | inactive: -0.011 | inactive: -0.026 | inactive: -0.417 | inactive: 0.046 |  | inactive: -0.004 |  | inactive: 0 | inactive: 0.026 | inactive: -0.023 | inactive: 0.012 | inactive: -0.005
4 | UBE3B (UniProt Q7Z3V4) | inactive: 0.142 | inactive: 0.086 | inactive: -0.03 | inactive: 0.007 |  | inactive: -0.099 |  |  | inactive: -0.057 |  | active: -0.554 | inactive: 0.088 |  |  |  | inactive: -0.007 |  |  | inactive: 0.014 | inactive: -0.023
5 | TUBB4A (UniProt M0QYM7) | inactive: -0.095 |  | inactive: -0.188 | inactive: -0.097 | inactive: -0.111 | inactive: -0.229 | inactive: -0.943 | inactive: 0.179 | inactive: 0.074 | inactive: 0.11 | inactive: -0.002 | inactive: -0.211 | inactive: 0.064 | inactive: -0.114 | inactive: 0.205 | inactive: 0.062 | inactive: 0.052 | inactive: -0.3 | inactive: 0 | inactive: -0.229
6 | UBE2K (UniProt D6RDM7) | inactive: -0.164 | inactive: -0.08 | inactive: -0.082 | inactive: -0.194 | inactive: -0.199 | inactive: -0.187 |  |  | inactive: 0.16 | inactive: 0.113 | inactive: 0.042 | inactive: -0.496 |  | inactive: 0.023 | inactive: 0.278 | inactive: 0.33 |  |  | inactive: 0.189 | inactive: -0.015
7 | UBE2S (UniProt Q16763) | inactive: 0.024 | inactive: -0.015 | inactive: 0.004 | inactive: 0.009 | inactive: 0.013 | inactive: 0.049 | inactive: -0.007 | inactive: 0.044 | inactive: 0.03 | inactive: -0.025 | active: -0.214 | inactive: 0.005 |  | inactive: 0.048 |  | inactive: -0.048 | inactive: 0.015 | inactive: 0.024 | inactive: 0.057 | inactive: 0.195
8 | TXNL4B (UniProt Q9NX01) | inactive: -0.037 | inactive: -0.088 | inactive: -0.002 | inactive: -0.04 | active: 0.453 | inactive: 0.024 | inactive: -0.06 | inactive: 0.014 | inactive: 0.306 | inactive: 0.075 | inactive: -0.111 | inactive: -0.036 |  | inactive: 0.186 |  | inactive: 0.051 | inactive: -0.069 | inactive: -0.053 |  | 
9 | UBE2D1 (UniProt P51668) | inactive: -0.08 | inactive: 0.029 | inactive: 0.021 |  | inactive: 0.156 | inactive: 0.097 | inactive: -0.004 | inactive: -0.035 | inactive: 0.047 | inactive: -0.123 | active: -0.333 | inactive: -0.024 |  | inactive: 0.017 |  | inactive: -0.109 | inactive: -0.045 | inactive: -0.095 |  | 
10 | TUBGCP4 (UniProt Q9UGJ1) | inactive: -0.211 | inactive: -0.036 | inactive: -0.002 | inactive: -0.013 |  | inactive: 0.149 |  | inactive: 0.165 | inactive: -0.158 | inactive: 0.123 | inactive: -0.071 |  | inactive: -0.005 |  | inactive: -0.034 | inactive: 0.139 |  |  |  | 
11 | TTC5 (UniProt Q8N0Z6) | inactive: 0.396 | inactive: -0.044 |  |  |  |  |  |  |  | inactive: -0.057 |  |  |  |  |  | inactive: 0.282 |  |  |  | 
12 | UBC (UniProt P0CG48) | inactive: 0.007 | inactive: -0.091 | inactive: -0.001 | inactive: -0.032 | inactive: -0.016 | inactive: -0.08 | inactive: -0.017 | inactive: 0.028 | inactive: -0.018 | inactive: 0.065 | inactive: 0.087 | inactive: 0.015 |  | inactive: 0.003 |  | inactive: -0.023 | inactive: 0.024 | inactive: 0.158 | inactive: 0.151 | active: 0.401
13 | TUBD1 (UniProt Q9UJT1) | inactive: 0.201 | inactive: 0.023 | inactive: 0.072 | inactive: 0.052 |  | inactive: -0.094 |  |  |  |  | inactive: -0.218 |  |  |  |  |  |  |  |  | 
14 | TUBB2B (UniProt Q9BVA1) | inactive: 0.009 | inactive: 0.036 | inactive: -0.08 | inactive: 0.068 | inactive: -0.01 | inactive: -0.187 |  | inactive: 0.102 | inactive: 0.033 | inactive: 0.044 | inactive: 0.023 | inactive: 0.056 | inactive: -0.025 | inactive: -0.073 | inactive: 0.042 | inactive: -0.268 | inactive: -0.047 | inactive: 0.057 |  | 
15 | TXNDC11 (UniProt Q6PKC3) | inactive: -0.003 | inactive: 0.003 | inactive: 0.037 | inactive: -0.125 | inactive: -0.053 | inactive: 0.067 | inactive: -0.089 | inactive: 0.043 | inactive: 0.026 | inactive: -0.027 | inactive: -0.303 |  | inactive: 0.023 | inactive: 0.009 | inactive: 0.019 | inactive: 0.041 | inactive: 0.017 | inactive: 0.113 | inactive: 0.061 | inactive: -0.041
16 | TTC7B isoform 2 (UniProt Q86TV6) | inactive: 0.041 | inactive: 0.059 | inactive: -0.081 | inactive: 0.048 | inactive: 0.016 | inactive: -0.172 |  | inactive: 0.035 | inactive: -0.047 | inactive: 0.07 | inactive: -0.067 | inactive: 0.166 | inactive: -0.102 | inactive: 0.182 | inactive: 0.007 | inactive: 0.033 | inactive: -0.024 | inactive: 0.149 |  | 
17 | TTC13 (UniProt Q8NBP0) | inactive: -0.02 | inactive: 0.068 |  | inactive: -0.19 | inactive: -0.4 |  |  | inactive: 0.054 |  | inactive: -0.028 |  |  | inactive: -0.128 | inactive: -0.044 |  | inactive: 0.107 | inactive: 0.073 | inactive: 0.009 |  | 
18 | TSPAN13 (UniProt O95857) | inactive: 0.111 | inactive: -0.078 | inactive: 0.161 |  | inactive: 0.103 | inactive: -0.08 | inactive: -0.113 | inactive: -0.063 | inactive: -0.041 |  | inactive: 0.098 | inactive: -0.083 |  | active: 0.512 |  | inactive: -0.036 | inactive: -0.098 | inactive: -0.003 | inactive: -0.061 | inactive: -0.148
19 | TXNDC16 (UniProt Q9P2K2) | inactive: -0.067 | inactive: 0.018 | inactive: -0.074 | inactive: -0.086 | inactive: 0.027 | inactive: 0.091 | inactive: 0.05 | inactive: -0.03 |  | inactive: 0 | inactive: -0.067 | inactive: 0.001 | inactive: -0.021 | inactive: 0.02 |  | inactive: 0.067 | inactive: -0.07 | inactive: 0.123 | inactive: 0.053 | inactive: -0.075
20 | TUBB8 (UniProt Q3ZCM7) | inactive: -0.145 | inactive: 0.067 |  | inactive: -0.038 |  |  |  | inactive: 0.059 |  |  |  | inactive: 0.082 | inactive: -0.097 |  |  | inactive: -0.177 |  |  |  | 
21 | UBE2E1 (UniProt P51965) | inactive: 0.032 | inactive: -0.263 | inactive: 0.057 | inactive: 0.039 | inactive: -0.054 | inactive: 0.031 | inactive: 0.046 | inactive: 0.089 | inactive: 0.059 |  | inactive: -0.214 | inactive: 0.168 | inactive: -0.069 | inactive: 0.16 | inactive: 0.086 | inactive: -0.007 | inactive: -0.14 | inactive: -0.163 | inactive: -0.169 | inactive: 0.04
